Experimental findings from the supplement of paper PMC7858590 are described below.

Structures are written as SMILES. Several values for one entry are separate records, joined by “and”; a condition that tells them apart may be missing. Identical values can stand only once. The full ranking holds about 3,800 compounds; the median of “cell shape (eccentricity) Z-score vs DMSO control” is about 1.1, and the lowest 2% start at about -4.7. The list shows a part of the results.

The subject of this assay is human monocyte-derived macrophages (M0). Put plainly: cell shape (eccentricity) Z-score vs DMSO control; higher = more elongated, M2-like morphology. Particulars: 20 µM; 24 h; macrophage state: M0 (M-CSF).
`CC(C)N1C[C@@H](C)[C@H](CN(C)Cc2ccc(Oc3ccccc3)cc2)Oc2c(NC(=O)c3ccncc3)cccc2C1=O`: the “cell shape (Z-score)” value stood at 2.27. Next, `C[C@]12CC[C@H](O)CC1=CCC1C2CC[C@@]2(C)C1CC[C@@H]2C(=O)CO` (stereo partly specified): -2.5; `C[C@@H]1O[C@@H](O[C@H]2[C@H](O)[C@@H](O[C@@H]3O[C@H](CO)[C@@H](O)[C@H](O)[C@H]3O)[C@H](O[C@H]3CC[C@@]4(C)C(=CC[C@@H]5C4CC[C@@]4(C)C5C[C@@H]5O[C@]6(CC[C@@](C)(CO)O6)[C@@H](C)[C@@H]54)C3)O[C@@H]2CO)[C@H](O)[C@H](O)[C@H]1O` (stereo partly specified): 0.702. Consider `Clc1ccc(Nc2nnc(Cc3ccncc3)c3ccccc23)cc1`, for which the “cell shape (Z-score)” value was -1.51. For `C=C[C@@]1(C)CCC2C(=CCC3[C@]2(C)CCC[C@@]3(C)C(=O)O)C1` (stereo partly specified), the “cell shape (Z-score)” value worked out at 0.629. In the case of `O=C(Oc1cccc2cccnc12)c1ccccc1`, the “cell shape (Z-score)” value was 2.15. As to `CC(C)=CCOc1c2ccoc2cc2oc(=O)ccc12`, the “cell shape (Z-score)” value amounted to 0.398. `CN1CCN(C2Cc3ccccc3Sc3ccc(Cl)cc32)CC1` (stereo unspecified): the “cell shape (Z-score)” value was -1.87.

Consider `COC(=O)C[C@H]1C(C)(C)C(=O)[C@@H]2CC3C4=CC(=O)O[C@@H](c5ccoc5)[C@]4(C)CCC3[C@@]1(C)C2=O` (stereo partly specified), for which the “cell shape (Z-score)” value was found to be 0.604. Next, `CCN(CC)CCNC(=O)c1c(C)[nH]c(/C=C2\C(=O)Nc3ccc(F)cc32)c1C`: 10.3 and 12.2. Consider `COc1ccc(C2CC(=O)c3c(O)cc(O[C@@H]4O[C@H](CO)[C@@H](OC5OCC(O)(CO)C5O)[C@H](O)[C@H]4O)cc3O2)cc1` (stereo partly specified), for which the “cell shape (Z-score)” value was determined as 2.04. Consider `CC(C)=CCOc1cc2oc(=O)ccc2cc1O`, for which the “cell shape (Z-score)” value is 3.69. As for `C[C@]12CC[C@@H]3c4ccc(O)cc4C[C@@H](CCCCCCCCCS(=O)CCCC(F)(F)C(F)(F)F)[C@H]3[C@@H]1CC[C@@H]2O` (stereo partly specified), the “cell shape (Z-score)” value worked out at 1.44.

In the case of `Cc1cccc(C(=O)NCN2CCN(c3ccccc3C#N)CC2)c1`, the “cell shape (Z-score)” value is -1.37. Regarding `O=C(O)c1ccc2c(c1)OCO2`, the “cell shape (Z-score)” value was determined as 3.18.

On to `CC12CCC3C(CCC4CC(O)CCC43C)C1CC=C2c1ccccc1` (stereo unspecified), for which the “cell shape (Z-score)” value amounted to 2.22. With `COc1cc(O)c2c(=O)c(OC3OC(CO[C@@H]4O[C@@H](C)[C@H](O)[C@@H](O[C@@H]5O[C@@H](C)[C@H](O)[C@@H](O)[C@H]5O)[C@H]4O)C(O)C(O)C3O)c(-c3ccc(O)cc3)oc2c1` (stereo partly specified), the “cell shape (Z-score)” value turned out to be 1.66.

As to `COc1cc2c(NC3CCN(C)CC3)nc(N3CCCN(C)CC3)nc2cc1OCCOCCN(C)C`, the “cell shape (Z-score)” value turned out to be 2.13.

Turning to `CCCN(CC=CI)C1CCc2cccc(O)c2C1` (stereo unspecified), the “cell shape (Z-score)” value is 1.69. Turning to `C[C@H](CO)N1C[C@H](C)[C@H](CN(C)C(=O)Nc2cc(F)ccc2F)Oc2cc(C#CC3CCCC3)ccc2S1(=O)=O`, the “cell shape (Z-score)” value turned out to be 5.14. Take `CCOc1cc2ncc(C#N)c(Nc3ccc(OCc4ccccn4)c(Cl)c3)c2cc1NC(=O)/C=C/CN(C)C`: the “cell shape (Z-score)” value is 13.9.
